Out of some 330,000 compounds screened, about 7,700 (2.3%) were called active. The shares of active, inactive and inconclusive entries below differ from those in the screen. Calls come from the whole dose curve; as a rule, active = well fitted inhibition curve with a large enough effect; inconclusive = small, poorly fitted or top-dose-only effect, or effect the other way; inactive = flat fitted curve, though single readings scatter. Potencies of inconclusive entries are doubtful fits and often do not repeat.
Test: qHTS screen for small molecules that inhibit ELG1-dependent DNA repair in human embryonic kidney (HEK293T) cells expressing luciferase-tagged ELG1; note: nearly all actives have a fitted effect of over 55% in size
Details: HEK293T ELG1-luciferase reporter, luminescence, 16 h, DNA damage induced by 5-fluorouridine; activity change, negative = inhibition: at 46.1 µM (top of the series)
How it was run: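 DMSO vehicle served as the neutral condition. Each well held 2,000 cells given 5-fluorouridine plus compound; after 16 hr at 37 °C/5% CO2, ONE-Glo was added and luciferase measured 30 min later.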
% is set by controls: 0 for no effect and ±100 for the full control effect; potency is the fitted concentration of half-maximal effect.

SMILES	activity change, negative = inhibition	Potency
CCNc1nc(NCC)n2c(SC(C)C(=O)c3ccc(C)cc3)nnc2n1 (centres undefined)	inactive: 4.74%	–
COc1ccc(OC)c(-c2nnc(-c3ccc(C)o3)o2)c1	inactive: 17.2%	–
CCC1(C)Cc2c(sc3nnn(Cc4ccccc4Cl)c(=O)c23)CO1 (centres undefined)	–	inconclusive: 29.1 µM [inhibitor, single point]
CC1CN(C(=O)COC(=O)Cc2c(F)cccc2Cl)CC(C)O1 (centres undefined)	inactive: 14.3%	–
Cc1nc2c(c3c1[nH]c1ccccc13)C(O)CC(C)(C)C2 (centres undefined)	–	inconclusive: 20.6 µM [inhibitor, single point]
O=C(NCc1cccnc1)c1ccc(COc2cccc3ccccc23)o1	–	inconclusive: 12.6 µM [inhibitor, single point]
Nc1c(C(=O)Nc2cccc(F)c2)nnn1-c1cccc(C(F)(F)F)c1	–	inconclusive: 16.4 µM [activator, partial curve, poor fit]
CCOC(=O)CSc1nc(C)c2ccccc2n1	–	inconclusive: 18.4 µM [activator, partial curve, poor fit]
Cc1nnc(-c2cnn(C)c2N)n1Cc1ccc2c(c1)OCO2	–	inconclusive: 16.4 µM [activator, single point]
O=C(Nc1cccc(F)c1)N1CC=C(c2ccc(Cl)cc2)CC1	–	inconclusive: 29.1 µM [inhibitor, single point]
O=C(O)c1ccc(CSc2nnc(-c3cccnc3)n2-c2ccc(Br)cc2)cc1	inactive: 0.924%	–
CCn1nc(NC(=O)c2ccncc2)c2cc3ccc(C)cc3nc21	–	inconclusive: 35.5 µM [inhibitor, single point]
COc1cc2c(cc1OC)C(c1ccc(-c3cc(Cl)ccc3Cl)o1)=NCC2	–	inconclusive: 16.4 µM [inhibitor, partial curve, poor fit]
Cc1nc2sccn2c(=O)c1S(=O)(=O)N1CCN(c2ccccc2)CC1	inactive: -0.972%	–
Cc1cc(/C=C2\C(=N)N3N=C(c4ccco4)SC3=NC2=O)c(C)n1Cc1ccccc1	inactive: -13.3%	–
Cc1nnc(NC(=O)CCC(=O)NC2CCCCCCC2)s1	–	inconclusive: 13 µM [activator, single point]
Cc1c(C(=O)NCc2cccs2)oc2ccccc12	–	inconclusive: 11.2 µM [activator, single point]
N#Cc1c(/N=C/c2ccc(-c3ccc(C(=O)O)c(Cl)c3)o2)sc2c1CCCC2	–	inconclusive: 9.2 µM [activator, partial curve, poor fit]
Cc1cc(C)nc(Sc2ncnc3sc4c(c23)CCC4)n1	–	inconclusive: 32.6 µM [inhibitor, partial curve, poor fit]

Some of the entries so far, in CSV form:
SMILES,"activity change, negative = inhibition",Potency
O=C(NCc1cccnc1)c1ccc(COc2cccc3ccccc23)o1,–,"inconclusive: 12.6 µM [inhibitor, single point]"
Nc1c(C(=O)Nc2cccc(F)c2)nnn1-c1cccc(C(F)(F)F)c1,–,"inconclusive: 16.4 µM [activator, partial curve, poor fit]"
